PubChem BioAssay AID602196 | INSERM | 2012
Purpose: 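Genes whose knock-down alters cisplatin killing of lung cancer cells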. System: human A549 lung cancer cells. Knock-down reagent: siRNA pair against human genes. Timing: 48 h transfection before cisplatin; time from cisplatin to read-out not stated. Challenge: cisplatin at a dose killing half of control-siRNA cells; exact dose and duration not given. Measurement: 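Cisplatin cell death as a shift from the 50% death seen with control siRNA; siRNAs toxic or growth-blocking alone scored 0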. Reading the numbers: two-siRNA summed score (-2 to +2): higher = both siRNAs protect from cisplatin killing; -2 means both sensitise; mean protection from cisplatin (shift in death): higher = protection from cisplatin killing. Active means: 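Each siRNA scores 0 if harmful alone by LDH or WST-1, otherwise +1 if it reduces and -1 if it increases cisplatin killing; a gene is active when both siRNAs agree (sum +2 or -2)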. Meaning of the calls: active = both siRNAs shift cisplatin killing the same way; inactive = no consistent shift, or siRNA harmful alone.
This is an unselected part of about 23,000 reagents. 455 of all reagents (2%) were called active. 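Active includes both protection and sensitisation; some change values fall well beyond the stated -50 to +50 range.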 Not all columns of the deposit are shown. Reagent sequences are not shown. The record does not give: the amount of reagent.

GTF2H1
- two-siRNA summed score (-2 to +2): 0
- mean protection from cisplatin (shift in death) (%): -4.7
- Outcome: inactive

LOC440609
- two-siRNA summed score (-2 to +2): 0
- mean protection from cisplatin (shift in death) (%): 9.6
- Outcome: inactive

LOC391833
- two-siRNA summed score (-2 to +2): 0
- mean protection from cisplatin (shift in death) (%): -3.6
- Outcome: inactive

CLIP1
- two-siRNA summed score (-2 to +2): 1
- mean protection from cisplatin (shift in death) (%): 10.5
- Outcome: inactive

NAT16
- two-siRNA summed score (-2 to +2): 0
- mean protection from cisplatin (shift in death) (%): 6.6
- Outcome: inactive

LOC343484
- two-siRNA summed score (-2 to +2): 1
- mean protection from cisplatin (shift in death) (%): 7.3
- Outcome: inactive

CNN2
- two-siRNA summed score (-2 to +2): 0
- mean protection from cisplatin (shift in death) (%): 5.5
- Outcome: inactive

COL17A1
- two-siRNA summed score (-2 to +2): 0
- mean protection from cisplatin (shift in death) (%): 8
- Outcome: inactive

TMEM158
- two-siRNA summed score (-2 to +2): 0
- mean protection from cisplatin (shift in death) (%): -11.3
- Outcome: inactive

ACER2
- two-siRNA summed score (-2 to +2): 1
- mean protection from cisplatin (shift in death) (%): 8.5
- Outcome: inactive

IWS1
- two-siRNA summed score (-2 to +2): 0
- mean protection from cisplatin (shift in death) (%): -3.5
- Outcome: inactive

LOC342600
- two-siRNA summed score (-2 to +2): 0
- mean protection from cisplatin (shift in death) (%): 11
- Outcome: inactive

MXRA7
- two-siRNA summed score (-2 to +2): 0
- mean protection from cisplatin (shift in death) (%): 21.2
- Outcome: inactive

Ordered by “two-siRNA summed score (-2 to +2)” (descending): some entries from above
ACER2
- two-siRNA summed score (-2 to +2): 1
- mean protection from cisplatin (shift in death) (%): 8.5
- Outcome: inactive

TMEM158
- two-siRNA summed score (-2 to +2): 0
- mean protection from cisplatin (shift in death) (%): -11.3
- Outcome: inactive

IWS1
- two-siRNA summed score (-2 to +2): 0
- mean protection from cisplatin (shift in death) (%): -3.5
- Outcome: inactive

LOC342600
- two-siRNA summed score (-2 to +2): 0
- mean protection from cisplatin (shift in death) (%): 11
- Outcome: inactive

More reagents:
SMIM12
- two-siRNA summed score (-2 to +2): 0
- mean protection from cisplatin (shift in death) (%): 3.3
- Outcome: inactive

LOC285442
- two-siRNA summed score (-2 to +2): 0
- mean protection from cisplatin (shift in death) (%): 0.5
- Outcome: inactive

LOC149913
- two-siRNA summed score (-2 to +2): 0
- mean protection from cisplatin (shift in death) (%): -5
- Outcome: inactive

MYEF2
- two-siRNA summed score (-2 to +2): 0
- mean protection from cisplatin (shift in death) (%): 2.9
- Outcome: inactive

ELAPOR1
- two-siRNA summed score (-2 to +2): 0
- mean protection from cisplatin (shift in death) (%): 18.3
- Outcome: inactive

SPRED2
- two-siRNA summed score (-2 to +2): 0
- mean protection from cisplatin (shift in death) (%): 6.3
- Outcome: inactive

MGARP
- two-siRNA summed score (-2 to +2): 0
- mean protection from cisplatin (shift in death) (%): 2.6
- Outcome: inactive

GDF1
- two-siRNA summed score (-2 to +2): 1
- mean protection from cisplatin (shift in death) (%): 16.9
- Outcome: inactive

ZNF280C
- two-siRNA summed score (-2 to +2): 0
- mean protection from cisplatin (shift in death) (%): 2.8
- Outcome: inactive

LOC442651
- two-siRNA summed score (-2 to +2): 0
- mean protection from cisplatin (shift in death) (%): 6.8
- Outcome: inactive

RIPOR3
- two-siRNA summed score (-2 to +2): 0
- mean protection from cisplatin (shift in death) (%): 6.7
- Outcome: inactive

PAM
- two-siRNA summed score (-2 to +2): 0
- mean protection from cisplatin (shift in death) (%): -4.1
- Outcome: inactive

AMPD3
- two-siRNA summed score (-2 to +2): 0
- mean protection from cisplatin (shift in death) (%): 48.1
- Outcome: inactive

COX5A
- two-siRNA summed score (-2 to +2): 0
- mean protection from cisplatin (shift in death) (%): -6.6
- Outcome: inactive

ATF6B
- two-siRNA summed score (-2 to +2): 0
- mean protection from cisplatin (shift in death) (%): -2
- Outcome: inactive

C22orf23
- two-siRNA summed score (-2 to +2): 0
- mean protection from cisplatin (shift in death) (%): 9.2
- Outcome: inactive

NDUFB3
- two-siRNA summed score (-2 to +2): 0
- mean protection from cisplatin (shift in death) (%): 4.1
- Outcome: inactive

LOC392556
- two-siRNA summed score (-2 to +2): 0
- mean protection from cisplatin (shift in death) (%): -2.6
- Outcome: inactive
